Test results from paper doi:10.1101/2024.07.30.605797.
Results are given in words; binding and its absence hold for the method and conditions named. Tags and fused reporters may be left off the sequences shown.

Biological target: T1, C-terminal His6-tagged VanA-type VanS^127-384 (cytoplasmic domain of the histidine kinase VanS) (UniProt Q06240)
T1 sequence: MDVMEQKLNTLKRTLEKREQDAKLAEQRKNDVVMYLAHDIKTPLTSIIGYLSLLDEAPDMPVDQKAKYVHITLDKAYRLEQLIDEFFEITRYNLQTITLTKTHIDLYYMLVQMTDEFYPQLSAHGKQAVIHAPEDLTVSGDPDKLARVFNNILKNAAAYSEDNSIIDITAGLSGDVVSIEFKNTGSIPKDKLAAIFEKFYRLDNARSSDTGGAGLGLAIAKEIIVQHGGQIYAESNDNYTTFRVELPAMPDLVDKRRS
Assay: differential scanning fluorimetry

B1: microcin J25 (peptide, UniProt Q9X2V7 38-58)
peptide: GGAGHVPEYFVGIGTPISFYG
modifications: lasso peptide (N-terminal macrolactam ring)
  binding: no binding (tested: 25 to 200 µM)
